{"source": "paper PMC10610214", "about": "(Pharmaceuticals, 2023)", "format": "in vitro ADME, SD rats", "settings": "SD rat liver microsomes", "procedure": "The incubation was terminated at different time points by adding 0.5 mL of ice-cold CH3CN. A parallel incubation was performed in the absence of a NADPH-regenerating system with microsomes as the negative control, and the reactions were terminated after the corresponding time incubation. After centrifugation with 12,500 rpm at 4 °C for 10 min, the supernatant was directly analyzed by the HPLC UV systems (Agilent HPLC 1200 instrument). Three independent experiments were performed in triplicate."}
{"smiles": "COc1cc2c(cc1OC)C(=O)C(CC1CCN(Cc3ccccc3)CC1)C2", "note": "(stereo not shown) [Donepezil, reference compound]", "values": [{"measurement": "K", "value": "0.00834 ± 0.00044", "unit": "min⁻¹"}]}
